These are yes or no findings as the source states them, for the method shown. A result given as binding can be weak or reduced; the word gives no strength. Where a sequence is shown, tags or fusion partners need not be part of it.
Target: NbREM4 (N. benthamiana remorin), yeast two-hybrid fusion (Nicotiana benthamiana)
Assay: two-hybrid

binding: binds
B1: AtPBS1 (A. thaliana PBS1) fused to the GAL4 activation domain (enzyme, UniProt Q9FE20 1-456)
chain: MGCFSCFDSSDDEKLNPVDESNHGQKKQSQPTVSNNISGLPSGGEKLSSKTNGGSKRELLLPRDGLGQIAAHTFAFRELAAATMNFHPDTFLGEGGFGRVYKGRLDSTGQVVAVKQLDRNGLQGNREFLVEVLMLSLLHHPNLVNLIGYCADGDQRLLVYEFMPLGSLEDHLHDLPPDKEALDWNMRMKIAAGAAKGLEFLHDKANPPVIYRDFKSSNILLDEGFHPKLSDFGLAKLGPTGDKSHVSTRVMGTYGYCAPEYAMTGQLTVKSDVYSFGVVFLELITGRKAIDSEMPHGEQNLVAWARPLFNDRRKFIKLADPRLKGRFPTRALYQALAVASMCIQEQAATRPLIADVVTALSYLANQAYDPSKDDSRRNRDERGARLITRNDDGGGSGSKFDLEGSEKEDSPRETARILNRDINRERAVAEAKMWGESLREKRRQSEQGTSESNSTG
